Measurements reported in article PMC5622071, “The identification of molecular target of (20S) ginsenoside Rh2 for its anti-cancer activity” (Scientific Reports, 2017).
These are yes or no findings as the source states them, for the method shown. In cells and extracts the contact can be indirect. Some entries that bind do so weakly or less than the wild type.

Protein sequences, listed by entry. Tags and fused reporters are not part of them. Residues count along the entry.
UniProt P19838, residues 1-433: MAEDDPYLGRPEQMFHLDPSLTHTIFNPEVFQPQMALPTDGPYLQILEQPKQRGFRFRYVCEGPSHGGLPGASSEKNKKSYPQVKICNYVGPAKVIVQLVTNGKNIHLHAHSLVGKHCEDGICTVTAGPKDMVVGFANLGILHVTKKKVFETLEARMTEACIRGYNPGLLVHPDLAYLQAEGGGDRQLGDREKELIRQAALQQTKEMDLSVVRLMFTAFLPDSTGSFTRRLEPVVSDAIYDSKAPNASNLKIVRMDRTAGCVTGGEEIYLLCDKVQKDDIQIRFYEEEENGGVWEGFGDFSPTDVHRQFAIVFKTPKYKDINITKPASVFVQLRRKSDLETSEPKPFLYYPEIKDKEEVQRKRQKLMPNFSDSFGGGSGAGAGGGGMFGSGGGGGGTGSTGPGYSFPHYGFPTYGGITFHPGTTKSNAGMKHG
UniProt P07355: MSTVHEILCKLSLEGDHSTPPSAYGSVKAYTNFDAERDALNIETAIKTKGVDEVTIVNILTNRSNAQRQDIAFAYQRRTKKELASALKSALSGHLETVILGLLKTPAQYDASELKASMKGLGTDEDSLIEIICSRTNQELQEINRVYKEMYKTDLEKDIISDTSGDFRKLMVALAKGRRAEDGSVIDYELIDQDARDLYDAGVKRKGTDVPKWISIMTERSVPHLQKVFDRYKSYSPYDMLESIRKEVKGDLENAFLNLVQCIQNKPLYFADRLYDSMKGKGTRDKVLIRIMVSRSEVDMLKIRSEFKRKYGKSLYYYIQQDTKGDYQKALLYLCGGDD

Target: NF-кB p50 subunit (human (endogenous in HepG2)) (UniProt P19838)
Assay: co-IP; HepG2 whole-cell lysate (2 mg), endogenous proteins; IP with anti-NF-кB p50 or anti-Annexin A2 antibody, protein A/G beads, 4 °C; cells treated 12 h without or with 3.75 μg/mL (20S)G-Rh2, 100 ng/mL PMA or 25 μg/mL etoposide

Annexin A2 (from UniProt P07355 1-339)
binding: binds
